Test results reported in PubChem BioAssay AID1458 (National Center for Advancing Translational Sciences (NCATS), 2008).
Hit rate of the full screen: of about 210,000 compounds, about 5,900 (2.8%) were called active. Not shown: some 5% with an inconclusive outcome. Calls follow the shape of the dose curve; as a rule, active = well fitted activation curve with a large enough effect; inconclusive = small, poorly fitted or top-dose-only effect; inactive = no such curve, though single readings can be large or run the other way. The list shows a part of the results, in another mix than the full data. Entries without a call were filed so in the source.

experiment: qHTS Assay for Enhancers of SMN2 Splice Variant Expression; settings: HEK293 SMN2-luciferase splicing reporter, luminescence, 30-36 h; activity change, positive = activation: at 46.1 µM (top of the series) unless noted; also: nearly all actives have a fitted effect of over 55% in size; as to activity change, positive = activation: % of control where 0% means no effect
Method in brief: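 HEK293 cells carry an SMN2 […]–luciferase reporter in which exon 7 inclusion puts luciferase in frame. Cells were plated 10-12 h before compound addition, then incubated 30-36 h at 37C. ONE-Glo luminescence was read; sodium butyrate at 4.5 mM final served as control.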
Potency is read from the fitted curve at half-maximal effect.

Row | Structure (SMILES) | Potency | activity change, positive = activation
1 | CC(=O)Nc1cc2nn(-c3ccccc3)nc2cc1Cl | active: 11.2 µM | –
2 | COc1ccc(F)cc1S(=O)(=O)n1cc(C)nc1-c1ccccc1 | active: 3.55 µM | –
3 | CCOc1ccc(C2c3c(oc4ccccc4c3=O)C(=O)N2CCCN2CCOCC2)cc1 (stereo not drawn) | – | 42.1%
4 | Cc1cccc(OCCSc2nncn2C)c1 | – | 42.7%
5 | COc1ccccc1-n1c(=S)sc2c(=O)n(Cc3ccco3)c(SC)nc21 | – | 18.7%
6 | COC(=O)c1ccc(NN=Nc2ccc(C)cc2)cc1 | active: 11.2 µM | –
7 | CCn1cnc2sc(-c3ccccc3)cc2c1=O | active: 10 µM | –
8 | NNC(=O)c1cccc(COc2ccc(Br)cc2)c1 | active: 1 µM | –
9 | S=C(c1ccc(-c2cccc(Cl)c2)o1)N1CCCCC1 | active: 11.2 µM | –
10 | CC(C)Cn1c(SCc2nc3ccccc3c(=O)[nH]2)nc2ccccc2c1=O | – | inactive: -30.7%
11 | Cc1ccc2cc(C)c(N3CCN(c4ccccn4)CC3)nc2c1 | – | -37.7%
12 | CC(=O)N/C(=C\c1cccs1)C(=O)O | – | inactive: -14.3%
13 | CCn1c(/C=C2/C(=O)N(C)c3ccccc32)nc2ccccc2c1=O | – | -52%
14 | CCN(CC)S(=O)(=O)c1ccc(Cl)c(NC(=O)COC(=O)c2c(C)noc2C)c1 | – | inactive: -38.2%
15 | O=C(c1cc2ccccc2oc1=O)N1CCN(Cc2ccc3c(c2)OCO3)CC1 | – | 28.4%
16 | CCOC(=O)c1c(C)[nH]c(C(=O)Nc2ccc3c(c2)OCO3)c1C | – | 241%
17 | Cc1ccnc(NS(=O)(=O)c2ccc(NC(=O)C3COc4ccccc4O3)cc2)n1 (stereo not drawn) | – | 42.7%
18 | CCCOc1ccccc1C1NC(=O)NC(C)=C1C(=O)OCc1ccccc1 (stereo not drawn) | – | -31.6%
19 | CC(C)c1cc(C(=O)NCCc2ccccc2)no1 | – | 302%
20 | COC(=O)c1ccccc1NC(=O)c1ccc(-c2ccccc2F)o1 | active: 5.01 µM | –
21 | S=C(Nc1ccc(Br)cc1)N1CCCC1 | active: 8.91 µM | –
22 | c1ccc2c(COn3nnc4ccccc43)cccc2c1 | – | 32.5%

Row | Structure (SMILES) | Potency | activity change, positive = activation
23 | Cc1cc(NC(c2nnc(-c3ccccc3)o2)c2ccccc2F)ccc1Br (stereo not drawn) | – | 55.5%
24 | O=c1c(Cl)c(N2CCCCC2)cnn1-c1nc2ccccc2[nH]1 | – | inactive: -62.7%
25 | CS(=O)(=O)N1CCc2cc(-c3csc(NC(=O)Cc4cccs4)n3)ccc21 | – | -49.1%
26 | O=C(CSc1nnnn1-c1ccc(F)cc1)NC1CCCCC1 | – | 35.4%
27 | Cn1cnc2c1c(=O)n(Cc1c(Cl)cccc1Cl)c(=O)n2C | – | 36.3%
28 | CS(=O)(=O)N1CCc2cc(S(=O)(=O)Nc3ccc4c(c3)OCCO4)ccc21 | – | -35.3%
29 | N#CCCN(Cc1cccnc1)C(=O)c1sc2cc(F)ccc2c1Cl | – | -55.7%
30 | CCSc1nnc(NC(=O)CSc2nnc(Cc3cccn3C)n2CCc2ccccc2)s1 | – | 33.1%
31 | COc1ccccc1-n1c(CNC(=O)c2ccco2)nnc1SCC(=O)Nc1cc(C)ccc1C | – | inactive: -37.1%
32 | CC(C)(C)c1ccc(OCC(=O)N2CCCCCC2)c(Br)c1 | active: 12.6 µM | –
33 | CC1=Nn2c(nnc2-c2ccccc2F)SC1 | – | 30.7%
34 | Cc1ccc(N=Nc2c(=O)[nH]n3c(=O)cc(C)[nH]c23)cc1 | – | inactive: -36.9%
35 | COCc1cc(C)nc(N2CCCCC2)c1C#N | – | 23.8%
36 | Cc1nn(CCC(=O)NNC(=S)Nc2ccc(F)cc2)c(C)c1Br | – | 6.31%
37 | C/C(NCC(C)(C)CN(C)C)=C(/C#N)C(=O)NCc1ccccc1 | – | 37.4%
38 | Cn1c(=NC(=O)CCl)sc2ccccc21 | – | inactive: -79.7%
39 | CN(C(=O)c1cccnc1)c1nnc(-c2ccccn2)s1 | – | 42.2%
40 | Cc1ccc(C)c(Cn2nnc3c(=O)[nH]c(C4CCCN(C(=O)CC(C)C)C4)nc32)c1 (stereo not drawn) | – | 34.8%
41 | Cc1onc(C(N)=O)c1C(=O)Nc1ncc(C(F)(F)F)cc1Cl | – | 43.5%
42 | CCOP(=O)(OCC)C(NC(=O)c1cc([N+](=O)[O-])cc([N+](=O)[O-])c1)C(F)(F)F (stereo not drawn) | – | 40.2%
43 | COc1ccc(C(=O)/C(C#N)=N/Nc2cccc([N+](=O)[O-])c2)cc1 | – | inactive: -62.9%
44 | N#Cc1c(-c2ccccc2Cl)noc1/C=C/Nc1ccc(C(=O)O)cc1 | – | 72.3%

Row | Structure (SMILES) | Potency | activity change, positive = activation
45 | CCOC(=O)Nc1cc(Br)c2c(c1)OCCO2 | – | 35.4%
46 | CCOC(=O)C1=C(C)NC2=C(C(=O)C(C(=O)OCC)C(c3ccco3)C2)C1c1ccccn1 (stereo not drawn) | – | 51.1%
47 | CC(C)c1ccc(CN2CCN(C(=O)CCl)CC2)cc1 | – | inactive: -35.2%
48 | COC(=O)C1=C(C)N=C2SC(C#N)=C(N)N2C1c1cccc(OC)c1 (stereo not drawn) | – | 44.8%
49 | Cc1c(C(=O)Nc2ccc3c(c2)OCCO3)sc2nc(-c3ccccc3)cn12 | – | inactive: -117%
50 | O=C(N/N=C/c1cn(-c2ccccc2)nc1-c1cc2ccccc2o1)c1ccccc1Br | active: 4.47 µM | –
51 | Cc1cc(NCCCn2ccnc2)n2ncc(-c3ccccc3)c2n1 | – | inactive: -38.4%
52 | CCN1CCN(Cc2c(O)ccc3oc(C)c(C(=O)Nc4cccc(C(F)(F)F)c4)c23)CC1 | – | -54%
53 | COCCC(=O)NC12CC3CC(CC(C3)C1)C2 | – | 34.5%
54 | CCOc1ccc(-c2nnc(-c3cccs3)o2)cc1 | active: 2 µM | –
55 | Cc1cccc(OCC(=O)NCc2cc(C)nc3ccccc23)c1 | – | inactive: -47%
56 | COc1ccc(-c2noc(CCC(=O)Nc3cccc(C)c3)n2)cc1 | – | 35.7%
57 | CC(NC(=S)NCCc1ccccc1)C(c1cccs1)N1CCN(Cc2ccccc2)CC1 (stereo not drawn) | – | inactive: -67.1%
58 | CC(/C=C1\SC(=S)N(NC(=O)c2ccccc2C)C1=O)=C\c1ccccc1 | – | -33.6%
59 | CCC(=O)OCC(=O)Nc1ccc2c(c1)OCO2 | – | 30.1%
60 | O=C(OCn1ncc(Br)c(Br)c1=O)c1c(F)cccc1F | – | -71.7%
61 | O=C(CCSCc1ccc(Cl)cc1)NCc1cccs1 | – | inactive: -61.2%
62 | O=C(O)/C=C/c1ccc(OCc2cccc(F)c2)cc1 | – | 39.7%
63 | Cc1c(CNC(=O)c2cnn3c2NC(c2ccc(Br)cc2)CC3C(F)(F)F)cnn1C (stereo not drawn) | – | 38.9%
64 | CNC(=O)C(C)NS(=O)(=O)c1ccc(F)cc1 (stereo not drawn) | – | 27.7%
65 | C/C(=N/NC(=O)Cc1cc(=O)[nH][nH]1)c1ccc([N+](=O)[O-])cc1 | – | 53.5%
66 | CCOC(=O)c1ccc(S(=O)(=O)NNC(=O)COc2cccc(C)c2)cc1 | – | 14.3%

Row | Structure (SMILES) | Potency | activity change, positive = activation
67 | Nc1nnc(COc2ccccc2)s1 | – | 36.7%
68 | O=C1CC(N2CCC(c3nc4ccccc4o3)CC2)C(=O)N1Cc1cccs1 (stereo not drawn) | – | 21.2%
69 | O=C(Oc1ccccc1)c1ccc2nccnc2c1 | – | 30.5%
70 | COc1cccc(C(=O)Oc2c(Sc3ccc(C)cc3)c(C)nn2C(C)(C)C)c1OC | – | inactive: -82.1%
71 | CCN(CC)CCCNC(=O)CCC(=O)NNc1nc2ccccc2c2nc(C)nn12 | inactive | –
72 | COc1ccc(-c2csc(NC(=O)c3cccc(S(=O)(=O)N4CCN(C)CC4)c3)n2)cc1 | – | -40.5%
73 | O=C(c1cc(C(F)(F)F)cc(C(F)(F)F)c1)N1CCC2(CCN(Cc3ccncc3)CC2)CC1 | – | inactive: -42.7%
74 | Clc1ccc(OCc2cn3cccnc3n2)c2ncccc12 | active: 11.2 µM | –
75 | CN(c1cccc(NC(=O)c2ccccc2N(C)S(C)(=O)=O)c1)S(C)(=O)=O | – | 34.1%
76 | C/C=C/c1ccccc1OCc1ccc(C(=O)O)o1 | – | 33.7%
77 | COc1ccc(CNC(=O)c2c(C)cc(=O)oc2C)cc1OC | – | 30.9%
78 | Cc1sc2nc(CSc3ccc([N+](=O)[O-])c(C(F)(F)F)c3)[nH]c(=O)c2c1C | – | 2.13%
79 | CCOc1ccc2nc(-c3cc(NC(C)=O)ccc3O)sc2c1 | – | 55%
80 | CCOC(=O)c1csc(NC(=O)CSc2nnnn2-c2ccc3c(c2)OCCO3)n1 | – | -81.1%
81 | COc1ccc(-c2ccc(SCC(=O)Nc3cc(C)on3)nn2)cc1OC | – | 36.3%
82 | COc1cc(SC)ccc1C(=O)Nc1ccc2c(c1)OCCO2 | active: 5.62 µM | –
83 | CCOc1ccc(NC(=S)N2CCC(C(O)(c3ccccc3)c3ccccc3)CC2)cc1 | – | -2.5%
84 | Cc1ccc(NC(=S)c2nc3ccccc3[nH]2)cc1 | active: 28.2 µM | –
85 | CCOc1ccccc1NC(=O)c1ccccc1N(C)S(C)(=O)=O | – | 24.3%
86 | Cn1c(C(=O)N2CCN(c3nc4ccccc4s3)CC2)cc2sccc21 | – | -61.8%
87 | CCC(=C(CC)c1ccc(O)cc1)c1ccc(O)cc1 | – | inactive: -24.2% [at 20.6 µM]
88 | COc1ccc(CCNC(=O)C(=O)NCCOc2ccccc2Cl)cc1OC | – | inactive: -0.877%

Full records as entered above. Values in the order: Potency	activity change, positive = activation
Nc1nnc(COc2ccccc2)s1 reads –	36.7%
CCC(=C(CC)c1ccc(O)cc1)c1ccc(O)cc1 reads –	inactive: -24.2% [at 20.6 µM]
CN(c1cccc(NC(=O)c2ccccc2N(C)S(C)(=O)=O)c1)S(C)(=O)=O reads –	34.1%
COc1ccc(CCNC(=O)C(=O)NCCOc2ccccc2Cl)cc1OC reads –	inactive: -0.877%

(further entries)

Row | Structure (SMILES) | Potency | activity change, positive = activation
89 | O=C(Nc1ccc(-c2ccc3nncn3n2)cc1)C1CCCCC1 | – | 37.8%
90 | O=C(Nc1nc(-c2ccc(S(=O)(=O)N3CCCC3)cc2)cs1)c1cccs1 | – | -84.3%
91 | CCC1CCCCN1CCCNC(=O)c1cc2c(=O)[nH]c3ccccc3c2n1C (stereo not drawn) | – | inactive: -38.2%
92 | C/C=C(\C)c1nnc(NC(=O)c2ccco2)s1 | active: 12.6 µM | –
93 | O=C(/C=C/c1cn(-c2ccccc2)nc1-c1cccc(Cl)c1)N1CCN(c2ccccn2)CC1 | – | inactive: -49.8%
94 | COc1ccc(C(=O)Oc2cc(-c3ccc(OC)c(OC)c3)cc(=O)c3c(C)oc(C)c23)cc1 | – | 45.2%
95 | Cc1cc(C)c2cc(C#N)c(SCC(=O)NCc3ccco3)nc2c1 | – | 36.3%
96 | COc1cccc(-c2ccc(-c3noc(-c4cccs4)n3)c(OC)n2)c1 | – | 23.2%
97 | COCCOC(=O)c1c(C)oc2ccc(NS(=O)(=O)c3ccccc3)cc12 | – | 38.4%
98 | COc1ccc(C(=O)/C=C/c2cn(CC(O)CN3CCOCC3)c3ccccc23)cc1 (stereo not drawn) | – | inactive: -51%
99 | CCOc1ccccc1C1N=C(c2ccc(OC)cc2)CC(c2ccccc2O)N1 (stereo not drawn) | – | 105%
100 | Cc1cc(C)cc(OCCCC(=O)O)c1 | – | 30.4%
101 | COc1ccc(S(=O)(=O)N2CCC(C(=O)NCCc3ccccc3)CC2)cc1OC | – | 30.8%
102 | Cc1ccc(C(=O)N/C(=C/c2cccs2)C(=O)NCCc2c[nH]c3ccccc23)cc1 | – | 52.9%
103 | CNc1ccc(Br)cc(C(=O)/C=C/c2cccc(OC)c2OC)c1=O | – | -95.8%
104 | COc1cc(C=Nc2c(C)cc(C)cc2C)ccc1OC(C)=O | – | 34.3%
105 | Cc1oc(/N=C/c2ccc(O)cc2O)c(C#N)c1C | – | inactive: -8.29%
106 | CCN(CC)C(=O)CSc1nnc(-c2ccc(S(=O)(=O)N3CCCC3)cc2)o1 | – | 29.3%
107 | CC(=O)Nc1ccc(Nc2nc(C)nc3c2oc2ccccc23)cc1 | – | 17.6%
108 | O=C(CC1N=C2c3ccccc3N=C(SCC(=O)Nc3cccc(Cl)c3)N2C1=O)NCc1cccs1 (stereo not drawn) | – | 41.1%
